Test results taken from article doi:10.1101/2024.04.22.590536 (bioRxiv, 2024).
Results are given in words; binding and its absence hold for the method and conditions named. Some binding calls cover weakened binding; strength is not graded here. Where a sequence is shown, tags or fusion partners need not be part of it.

The chains behind the UniProt entries cited, without tags or fusion partners.
UniProt P25586: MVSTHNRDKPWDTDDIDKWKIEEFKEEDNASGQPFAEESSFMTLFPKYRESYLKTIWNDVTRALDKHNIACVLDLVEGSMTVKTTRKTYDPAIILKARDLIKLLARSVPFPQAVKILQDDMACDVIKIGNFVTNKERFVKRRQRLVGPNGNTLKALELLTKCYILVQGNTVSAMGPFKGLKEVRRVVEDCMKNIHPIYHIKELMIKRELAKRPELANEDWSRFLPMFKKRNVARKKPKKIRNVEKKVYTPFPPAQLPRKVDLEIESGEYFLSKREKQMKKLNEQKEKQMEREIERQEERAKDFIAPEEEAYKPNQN

Key:
Test in all cases: two-hybrid
[1] = target: T1, Ckb2 fused to the GAL4 DNA binding domain (S. cerevisiae) (UniProt P38930)
T1 sequence: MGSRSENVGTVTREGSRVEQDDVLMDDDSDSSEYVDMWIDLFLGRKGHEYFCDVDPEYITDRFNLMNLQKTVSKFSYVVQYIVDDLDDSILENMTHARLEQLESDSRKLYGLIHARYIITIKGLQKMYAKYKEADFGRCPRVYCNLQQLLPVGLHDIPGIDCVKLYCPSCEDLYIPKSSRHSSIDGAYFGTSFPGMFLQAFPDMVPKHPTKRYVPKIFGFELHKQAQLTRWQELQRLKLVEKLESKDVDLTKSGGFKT

[2] = target: Krr1 fused to the GAL4 DNA binding domain (S. cerevisiae) (UniProt P25586)
[3] = target: T2, Mpp10 fused to the GAL4 DNA binding domain (S. cerevisiae) (UniProt P47083)
T2 sequence: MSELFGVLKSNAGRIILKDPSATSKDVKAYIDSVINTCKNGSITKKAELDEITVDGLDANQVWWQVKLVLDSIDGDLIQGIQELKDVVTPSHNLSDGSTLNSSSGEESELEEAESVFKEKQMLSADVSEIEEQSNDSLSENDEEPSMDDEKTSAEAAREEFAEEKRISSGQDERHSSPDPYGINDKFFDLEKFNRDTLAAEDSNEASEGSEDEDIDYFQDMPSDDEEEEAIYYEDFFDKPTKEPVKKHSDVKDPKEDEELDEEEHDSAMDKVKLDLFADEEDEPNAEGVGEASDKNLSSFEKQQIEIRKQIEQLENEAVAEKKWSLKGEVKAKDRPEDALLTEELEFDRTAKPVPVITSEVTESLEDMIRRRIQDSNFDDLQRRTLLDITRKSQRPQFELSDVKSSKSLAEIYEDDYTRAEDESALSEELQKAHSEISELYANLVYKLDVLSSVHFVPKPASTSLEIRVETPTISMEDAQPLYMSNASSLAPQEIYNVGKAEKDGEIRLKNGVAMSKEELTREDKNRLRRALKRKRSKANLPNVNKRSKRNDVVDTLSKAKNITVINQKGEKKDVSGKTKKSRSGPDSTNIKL

Measured: binding

B1: Stm1 fused to the GAL4 activation domain (protein, UniProt P39015 1-273)
chain: MSNPFDLLGNDVEDADVVVLPPKEIVKSNTSSKKADVPPPSADPSKARKNRPRPSGNEGAIRDKTAGRRNNRSKDVTDSATTKKSNTRRATDRHSRTGKTDTKKKVNQGWGDDKKELSAEKEAQADAAAEIAEDAAEAEDAGKPKTAQLSLQDYLNQQANNQFNKVPEAKKVELDAERIETAEKEAYVPATKVKNVKSKQLKTKEYLEFDATFVESNTRKNFGDRNNNSRNNFNNRRGGRGARKGNNTANATNSANTVQKNRNIDVSNLPSLA
binds: [1] | [2] | [3]
